At least one compound was matched to its structure with a doubt left.
Legend:
wild-type cell line = assay: Drug fingerprint on wild-type cell line compared with the R201C mutant; assay type: cell-based; details: applied to the wild-type cell line
neurons = assay: Nearest neighbor matching of 8-dimensional drug fingerprints across the 400 compound library; assay type: cell-based; details: nearest neighbor query across the 400 compound library
From the text: An autoencoder reduces 518 features extracted from Optopatch measurements through an 8-dimensional bottleneck layer (the “embedding”) before attempting to expand back out and reconstruct the initial inputs. The embeddings are information-dense and (because of the preceding depth) reflect high-order representations. The autoencoder may implement a swish activation function between any layers (e.g., between the 518 and 50 dimensional layers, or between the 50 and 25 dimensional layers. Activation functions extend neural networks behavior to non-linear data. Thus the autoencoder is useful for deriving drug fingerprints with representation learning.
Over 400 compounds have been assessed in 10-point concentration response curves (CRCs) in neuronal excitability assays.
In general, the highest concentrations of the compounds are associated with the largest deviation from control. The action potential traces of FIG. 48 are shown to the autoencoder of FIG. 45, which derives for each compound an 8-dimensional fingerprint such as the two (two replicates of one compound) shown in FIG. 46. […]
GSK 3787 is a potent and selective peroxisome proliferator-activated receptor δ (PPARδ) antagonist. […] Software may read hundreds (e.g., 512) of features of action potentials fluorescently shown in the movies. […]

Structure (SMILES): CCOC(=O)Nc1ccc(NCc2ccc(F)cc2)cc1N [Retigabine]
- cell behavior (fingerprint) compared with the gain-of-function R201C mutant (wild-type cell line): induces cell behavior similar to the gain-of-function R201C mutant
- drug fingerprint similarity to query compound ICA-27243 (neurons): highly similar drug fingerprints
